Results are given in words; binding and its absence hold for the method and conditions named. For some assays here: In cells and extracts the contact can be indirect. Some binding calls cover weakened binding; strength is not graded here.
Legend:
[1] = biological target: endogenous NLRP3 of mouse macrophages (mouse (endogenous in peritoneal macrophages and BMDMs)) (UniProt Q8R4B8); test: co-IP; endogenous proteins in mouse peritoneal macrophages treated with LPS (100 ng/mL, 3 h) alone or with nigericin (10 μM, 1 h); specific Abs or IgG overnight at 4 °C, protein A/G plus agarose; immunoblot
[2] = biological target: recombinant murine KAT5-GST (mouse) (UniProt Q8CHK4); test: pull-down; 2 μg KAT5-GST or GST on Glutathione Sepharose 4B, incubated with 2 μg NLRP3-His for 2 h at 4 °C in 20 mM HEPES pH 7.9, 150 mM NaCl, 0.5 mM EDTA, 1 mM DTT, 10% glycerol, 0.1% Triton-X-100; immunoblot; both purified

The chains behind the UniProt entries cited, without tags or fusion partners.
UniProt Q8R4B8: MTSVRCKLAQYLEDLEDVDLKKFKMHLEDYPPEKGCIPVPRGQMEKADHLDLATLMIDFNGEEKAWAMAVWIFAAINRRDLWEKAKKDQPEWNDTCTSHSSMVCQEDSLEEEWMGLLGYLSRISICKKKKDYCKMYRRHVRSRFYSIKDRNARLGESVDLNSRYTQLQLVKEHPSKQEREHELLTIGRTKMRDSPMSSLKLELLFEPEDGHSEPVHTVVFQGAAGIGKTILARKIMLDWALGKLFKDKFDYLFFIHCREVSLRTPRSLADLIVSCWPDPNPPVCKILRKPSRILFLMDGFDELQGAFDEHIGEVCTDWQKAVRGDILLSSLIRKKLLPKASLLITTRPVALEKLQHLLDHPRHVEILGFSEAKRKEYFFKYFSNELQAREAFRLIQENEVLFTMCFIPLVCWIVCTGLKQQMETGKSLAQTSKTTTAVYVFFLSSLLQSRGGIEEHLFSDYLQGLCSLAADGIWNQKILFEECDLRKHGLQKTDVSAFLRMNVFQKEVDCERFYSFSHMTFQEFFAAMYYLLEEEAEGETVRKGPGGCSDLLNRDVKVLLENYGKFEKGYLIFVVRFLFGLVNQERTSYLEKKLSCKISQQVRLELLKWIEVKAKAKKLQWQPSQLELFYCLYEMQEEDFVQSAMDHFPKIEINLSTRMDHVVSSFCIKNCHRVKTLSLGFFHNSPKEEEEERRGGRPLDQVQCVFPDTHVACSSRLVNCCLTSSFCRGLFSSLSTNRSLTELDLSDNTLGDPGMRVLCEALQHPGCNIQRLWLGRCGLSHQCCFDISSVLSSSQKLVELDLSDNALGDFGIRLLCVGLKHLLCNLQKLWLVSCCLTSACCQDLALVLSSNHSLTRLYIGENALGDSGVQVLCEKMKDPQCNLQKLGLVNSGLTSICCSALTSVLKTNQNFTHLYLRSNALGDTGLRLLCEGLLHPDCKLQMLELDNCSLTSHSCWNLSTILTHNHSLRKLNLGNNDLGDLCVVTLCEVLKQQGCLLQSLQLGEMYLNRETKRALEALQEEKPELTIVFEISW
UniProt Q8CHK4: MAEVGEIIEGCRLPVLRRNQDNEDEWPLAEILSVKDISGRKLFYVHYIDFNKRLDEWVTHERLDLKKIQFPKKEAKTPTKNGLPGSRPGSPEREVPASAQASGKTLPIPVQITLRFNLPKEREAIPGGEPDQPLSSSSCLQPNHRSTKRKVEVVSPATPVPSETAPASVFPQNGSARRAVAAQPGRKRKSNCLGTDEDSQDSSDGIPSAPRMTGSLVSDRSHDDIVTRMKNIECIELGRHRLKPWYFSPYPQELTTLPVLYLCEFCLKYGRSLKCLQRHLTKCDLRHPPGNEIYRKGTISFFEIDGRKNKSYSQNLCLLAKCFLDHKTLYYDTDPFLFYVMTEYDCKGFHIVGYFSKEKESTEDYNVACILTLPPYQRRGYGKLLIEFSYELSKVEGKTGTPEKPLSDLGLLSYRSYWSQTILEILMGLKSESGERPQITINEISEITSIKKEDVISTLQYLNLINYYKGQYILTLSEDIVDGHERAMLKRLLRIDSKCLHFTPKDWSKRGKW

Substance | binding [1] | binding [2]
endogenous KAT5 (lysine acetyltransferase 5) of mouse peritoneal macrophages (from UniProt Q8CHK4 1-513) (enzyme) | binds | –
recombinant murine NLRP3-His (from UniProt Q8R4B8 1-1033) | – | binds

From article PMC10728138
